For at least one compound, name, drawing or mass did not settle the structure. Some of these results come from one statement about several compounds together.
Key:
[1] = tested on: MDA-MB-231; assay: Cell migration assay; assay type: cell-based; details: MDA-MB-231, 2.5 μM, FIG. 11
[2] = tested on: twelve different cell lines, representing eight different cancer types; details: cited from earlier work
[3] = tested on: C. elegans; details: pharmacological inhibition of mitochondrial biogenesis; cited from earlier work

For `OC1C(NCc2ccccc2)CCCC1Oc1ccccc1Oc1ccc(Cl)cc1` (centres unmarked) [23/G4], the “inhibition of cell migration” value [1] was “more than 70%”.

With `CCCc1ccc(OCc2ccccc2)c(CN2CCC3(CC2)CC(N(C)C)C(C)(O)CO3)c1` (centres unmarked) [24/D4] the “inhibition of cell migration” value [1] was “more than 70%”.

In the case of `C[C@H]1c2cccc(O)c2C(=O)C2=C(O)[C@]3(O)C(=O)C(C(N)=O)=C(O)[C@@H](N(C)C)[C@@H]3[C@@H](O)[C@@H]21` [DOXYCYCLINE, reference compound], the “efficacy in cancer cell lines” value [2] is given as “show efficacy” and the “effect on lifespan” value [3] is given as “significantly increases lifespan”.

For `CN1CCN(C2CCN(Cc3cc(C(C)(C)C)ccc3OCc3ccccc3)CCC2O)CC1` (centres unmarked) [24/F9], the “inhibition of cell migration” value [1] was “more than 70%”.

— patent publication US11311501B2, “Mitoriboscins: mitochondrial-based therapeutics targeting cancer cells, bacteria, and pathogenic yeast” (LUNELLA BIOTECH, INC., priority 2017, dated 2022)
